Experimental data: article doi:10.64898/2025.12.03.691809
These are yes or no findings as the source states them, for the method shown. Binding seen in cells or lysates may run through a third protein. Here binding means that the protein was enriched with, or labelled near, the bait; the list need not be complete. No binding means not detected with the bait.

Sequences of proteins named here, by UniProt entry; tags and fusion partners are left off.
UniProt Q9HD67: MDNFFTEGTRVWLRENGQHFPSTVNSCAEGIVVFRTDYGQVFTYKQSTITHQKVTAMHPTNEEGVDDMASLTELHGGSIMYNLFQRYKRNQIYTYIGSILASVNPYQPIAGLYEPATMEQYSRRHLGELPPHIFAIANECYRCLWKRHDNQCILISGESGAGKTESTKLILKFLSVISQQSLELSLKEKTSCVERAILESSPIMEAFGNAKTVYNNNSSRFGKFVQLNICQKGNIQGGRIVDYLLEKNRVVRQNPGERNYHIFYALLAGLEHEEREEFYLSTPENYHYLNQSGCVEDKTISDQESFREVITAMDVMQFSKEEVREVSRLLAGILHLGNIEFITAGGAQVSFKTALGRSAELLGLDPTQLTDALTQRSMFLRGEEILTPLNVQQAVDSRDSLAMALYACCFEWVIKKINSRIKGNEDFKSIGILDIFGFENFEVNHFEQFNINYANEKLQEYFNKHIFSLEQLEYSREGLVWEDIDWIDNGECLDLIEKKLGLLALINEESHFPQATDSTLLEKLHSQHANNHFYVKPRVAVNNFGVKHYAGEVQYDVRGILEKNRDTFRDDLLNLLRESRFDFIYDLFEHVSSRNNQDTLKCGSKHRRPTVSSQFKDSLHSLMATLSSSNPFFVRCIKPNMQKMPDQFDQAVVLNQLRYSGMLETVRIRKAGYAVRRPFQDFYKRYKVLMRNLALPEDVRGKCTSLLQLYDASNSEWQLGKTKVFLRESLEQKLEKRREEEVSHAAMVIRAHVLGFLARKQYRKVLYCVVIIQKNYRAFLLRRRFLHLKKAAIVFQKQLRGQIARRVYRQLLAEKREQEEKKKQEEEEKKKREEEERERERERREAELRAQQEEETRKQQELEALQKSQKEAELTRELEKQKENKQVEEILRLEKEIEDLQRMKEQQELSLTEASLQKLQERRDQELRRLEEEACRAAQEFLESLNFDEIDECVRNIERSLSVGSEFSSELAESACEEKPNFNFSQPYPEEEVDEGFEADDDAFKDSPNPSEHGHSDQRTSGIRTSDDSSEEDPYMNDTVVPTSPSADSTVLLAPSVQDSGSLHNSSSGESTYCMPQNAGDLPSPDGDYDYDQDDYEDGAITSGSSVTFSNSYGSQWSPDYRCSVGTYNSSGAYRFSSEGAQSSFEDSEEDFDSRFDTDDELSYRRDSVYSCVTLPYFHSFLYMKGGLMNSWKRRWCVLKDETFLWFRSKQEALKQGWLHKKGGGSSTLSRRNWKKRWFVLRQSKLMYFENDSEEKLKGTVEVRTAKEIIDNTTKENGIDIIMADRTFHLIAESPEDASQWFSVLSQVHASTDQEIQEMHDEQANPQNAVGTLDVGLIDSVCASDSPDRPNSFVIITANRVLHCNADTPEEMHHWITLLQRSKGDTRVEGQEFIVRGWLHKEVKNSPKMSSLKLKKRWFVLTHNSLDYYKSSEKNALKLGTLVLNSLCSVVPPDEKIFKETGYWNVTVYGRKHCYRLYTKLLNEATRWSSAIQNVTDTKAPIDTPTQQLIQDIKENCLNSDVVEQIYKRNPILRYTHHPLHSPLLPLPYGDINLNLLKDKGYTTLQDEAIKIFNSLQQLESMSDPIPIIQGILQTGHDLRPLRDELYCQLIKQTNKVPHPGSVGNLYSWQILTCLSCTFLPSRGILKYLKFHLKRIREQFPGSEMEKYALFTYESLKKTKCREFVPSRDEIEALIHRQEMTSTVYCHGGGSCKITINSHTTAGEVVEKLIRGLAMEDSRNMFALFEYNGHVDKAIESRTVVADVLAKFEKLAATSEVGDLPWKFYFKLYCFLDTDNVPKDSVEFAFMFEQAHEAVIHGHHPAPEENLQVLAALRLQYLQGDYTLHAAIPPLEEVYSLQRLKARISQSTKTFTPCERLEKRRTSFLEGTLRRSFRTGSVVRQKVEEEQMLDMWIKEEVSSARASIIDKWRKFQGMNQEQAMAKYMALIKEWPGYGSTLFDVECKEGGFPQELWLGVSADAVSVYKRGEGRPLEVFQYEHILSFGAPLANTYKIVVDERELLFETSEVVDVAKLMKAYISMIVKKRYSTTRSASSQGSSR
UniProt P48643: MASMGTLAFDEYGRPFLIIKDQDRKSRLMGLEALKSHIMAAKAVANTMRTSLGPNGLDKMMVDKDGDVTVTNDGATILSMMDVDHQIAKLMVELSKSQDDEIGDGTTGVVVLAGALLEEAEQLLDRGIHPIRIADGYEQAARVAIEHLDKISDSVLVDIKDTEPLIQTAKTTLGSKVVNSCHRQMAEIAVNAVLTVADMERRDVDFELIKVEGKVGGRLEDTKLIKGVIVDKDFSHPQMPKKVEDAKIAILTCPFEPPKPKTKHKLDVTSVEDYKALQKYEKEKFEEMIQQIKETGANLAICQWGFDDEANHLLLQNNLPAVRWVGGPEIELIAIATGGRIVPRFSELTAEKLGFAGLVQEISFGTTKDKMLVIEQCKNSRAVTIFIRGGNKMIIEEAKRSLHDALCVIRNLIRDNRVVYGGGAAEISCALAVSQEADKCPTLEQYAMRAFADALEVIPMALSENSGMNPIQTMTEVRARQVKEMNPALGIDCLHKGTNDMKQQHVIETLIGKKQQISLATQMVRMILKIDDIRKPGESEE
UniProt Q99832: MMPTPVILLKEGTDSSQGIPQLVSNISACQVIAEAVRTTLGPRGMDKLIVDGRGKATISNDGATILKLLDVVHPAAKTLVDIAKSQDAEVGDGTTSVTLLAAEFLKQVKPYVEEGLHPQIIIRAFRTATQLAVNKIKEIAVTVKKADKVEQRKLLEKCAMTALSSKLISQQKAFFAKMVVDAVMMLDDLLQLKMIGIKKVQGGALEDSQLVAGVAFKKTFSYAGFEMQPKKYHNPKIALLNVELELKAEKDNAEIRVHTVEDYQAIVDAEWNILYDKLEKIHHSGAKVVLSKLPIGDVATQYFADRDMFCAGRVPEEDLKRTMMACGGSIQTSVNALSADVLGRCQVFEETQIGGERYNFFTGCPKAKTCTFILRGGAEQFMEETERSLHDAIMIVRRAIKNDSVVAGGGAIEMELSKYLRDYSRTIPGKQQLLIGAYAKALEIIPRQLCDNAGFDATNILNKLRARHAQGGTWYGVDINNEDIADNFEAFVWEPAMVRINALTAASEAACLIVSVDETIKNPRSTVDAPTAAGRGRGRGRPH

B1: CCT2 (TRiC subunit) (protein, UniProt P78371 1-535)
chain: MASLSLAPVNIFKAGADEERAETARLTSFIGAIAIGDLVKSTLGPKGMDKILLSSGRDASLMVTNDGATILKNIGVDNPAAKVLVDMSRVQDDEVGDGTTSVTVLAAELLREAESLIAKKIHPQTIIAGWREATKAAREALLSSAVDHGSDEVKFRQDLMNIAGTTLSSKLLTHHKDHFTKLAVEAVLRLKGSGNLEAIHIIKKLGGSLADSYLDEGFLLDKKIGVNQPKRIENAKILIANTGMDTDKIKIFGSRVRVDSTAKVAEIEHAEKEKMKEKVERILKHGINCFINRQLIYNYPEQLFGAAGVMAIEHADFAGVERLALVTGGEIASTFDHPELVKLGSCKLIEEVMIGEDKLIHFSGVALGEACTIVLRGATQQILDEAERSLHDALCVLAQTVKDSRTVYGGGCSEMLMAHAVTQLANRTPGKEAVAMESYAKALRMLPTIIADNAGYDSADLVAQLRAAHSEGNTTAGLDMREGTIGDMAILGITESFQVKRQVLLSAAEAAEVILRVDNIIKAAPRKRVPDHHPC

Each molecule was assayed against TurboID-MYO10 (human) (UniProt Q9HD67) (assay: proximity labelling).
For “CCT5 (TRiC subunit) (from UniProt P48643 1-541)”, the binding was “no binding”. With “CCT7 (TRiC subunit) (from UniProt Q99832 1-543)” the binding was “no binding”. With B1 the binding was “no binding”.
